In paper PMC4337420:

Target: GST-tagged FoxO fragment: 35 amino acid Usp binding region (Drosophila melanogaster)
Test: pull-down; GST-pulldown in vitro: GST-tagged FoxO (full length, fragments or point mutants) purified on Glutathione Sepharose 4B as bait; Flag-tagged Usp or EcR detected with anti-Flag M2; source of the Flag-tagged proteins not told

B1: Flag-tagged Ultraspiracle (Usp), full length (protein, UniProt P20153 1-508)
chain: MDNCDQDASFRLSHIKEEVKPDISQLNDSNNSSFSPKAESPVPFMQAMSMVHVLPGSNSASSNNNSAGDAQMAQAPNSAGGSAAAAVQQQYPPNHPLSGSKHLCSICGDRASGKHYGVYSCEGCKGFFKRTVRKDLTYACRENRNCIIDKRQRNRCQYCRYQKCLTCGMKREAVQEERQRGARNAAGRLSASGGGSSGPGSVGGSSSQGGGGGGGVSGGMGSGNGSDDFMTNSVSRDFSIERIIEAEQRAETQCGDRALTFLRVGPYSTVQPDYKGAVSALCQVVNKQLFQMVEYARMMPHFAQVPLDDQVILLKAAWIELLIANVAWCSIVSLDDGGAGGGGGGLGHDGSFERRSPGLQPQQLFLNQSFSYHRNSAIKAGVSAIFDRILSELSVKMKRLNLDRRELSCLKAIILYNPDIRGIKSRAEIEMCREKVYACLDEHCRLEHPGDDGRFAQLLLRLPALRSISLKCQDHLFLFRITSDRPLEELFLEQLEAPPPPGLAMKLE
binding: binds

No constants are given. Whether binding was seen depends on the method and setting. In cells and extracts the contact can be indirect. A result given as binding can be weak or reduced; the word gives no strength. Sequences can lack the tags named with a protein.
